Numbering of substitutions follows the chain as printed. Names and notes keep the numbering of the source. No constants are given. Whether binding was seen depends on the method and setting. In cells and extracts the contact can be indirect. A result given as binding can be weak or reduced; the word gives no strength. Each block holds one molecule with its values, some of them ahead of it.
Legend:
[1] = target: T1, WHITE COLLAR 2 (WC-2) (Neurospora (endogenous in Neurospora extracts)) (UniProt P78714); assay: co-IP; WC-2 antibody and GammaBind G Sepharose beads, 2 mg Neurospora extract (50 mM HEPES pH 7.4, 137 mM NaCl, 10% glycerol); WC-2 precipitated, FRQ detected by Western blot; cultures in LL, for the wild type also at time points in DD
T1 sequence: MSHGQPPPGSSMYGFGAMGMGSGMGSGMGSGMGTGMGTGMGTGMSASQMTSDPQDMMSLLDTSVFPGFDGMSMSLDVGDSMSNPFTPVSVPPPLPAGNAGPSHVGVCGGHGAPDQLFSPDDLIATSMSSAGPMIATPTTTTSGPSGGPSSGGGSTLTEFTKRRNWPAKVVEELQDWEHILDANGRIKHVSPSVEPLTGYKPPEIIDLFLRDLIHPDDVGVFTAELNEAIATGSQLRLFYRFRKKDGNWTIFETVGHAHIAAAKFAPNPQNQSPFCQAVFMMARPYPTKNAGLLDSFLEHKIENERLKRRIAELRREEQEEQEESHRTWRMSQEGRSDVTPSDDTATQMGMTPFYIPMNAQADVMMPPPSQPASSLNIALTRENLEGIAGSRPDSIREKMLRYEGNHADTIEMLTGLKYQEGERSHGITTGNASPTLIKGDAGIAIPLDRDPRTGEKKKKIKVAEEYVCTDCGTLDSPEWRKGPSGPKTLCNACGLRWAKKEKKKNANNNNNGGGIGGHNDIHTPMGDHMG

[2] = target: Myc.His.CK1a (Neurospora); assay: co-IP; c-Myc antibody and GammaBind G Sepharose beads, 2 mg extract of Neurospora strains that express Myc.His.CK1a; FRQ detected by Western blot; cultures in LL; for the wild type also DD time points, 1 h CHX treatment and the ckb^RIP background
[3] = target: CK1a (casein kinase 1a), endogenous (Neurospora (endogenous in Neurospora extracts)); assay: co-IP; CK1a antibody (endogenous CK1a) and GammaBind G Sepharose beads, 2 mg Neurospora extract (50 mM HEPES pH 7.4, 137 mM NaCl, 10% glycerol); FRQ detected by Western blot; cultures in LL

binding [1]: binds
Molecule: FRQ M9 (phosphorylation site mutant) (from UniProt P19970)

binding [1]: binds
Molecule: FRQ M10 (phosphorylation site mutant) (from UniProt P19970)

binding [2]: binds | binding [3]: binds
B1: FREQUENCY (FRQ), wild type (protein, UniProt P19970 1-989)
chain: MADSGDKSQGMRPPPFDSRGHPLPRRASPDKSITLENHRLARDTSSRVTSSSALGVTESQPQLKSSPTRRNSSGESEPTNWFNQSNRNPAAAFHDESHIMEVDPPFYQKETDSSNEESRYPPGRNPVHPPGGVQLPGFRPVAAHSSAADDYRSVIDDLTVENKRLKEELKRYKQFGSDVMRKEKLFEIKVHGLPRRKKRELEATLRDFAASLGDSSESTSQRRKTGRHGTAVHSSGVSLSKHDSSSSSRSRPVDSAYNSMSTGRSSHAPHSSGPSLGRPSLTRAKSVGTQKVENYLRDTPDGLLPHHIVMTDKEKKKLVVRRLEQLFTGKISGRNMQRNQSMPSMDAPLAPEGTNMAPPRPPPEGLREACIQLQDGDNPRKNRSSKDNGSASNSGGDQTELGGTGTGSGDGSGSGGRTGNNTSPPGAIAPDQRPTRPRDLDPDRVQIPSENMDYIRHLGLVSPEFLQGSRTSYQDVAPDAEGWVYLNLLCNLAQLHMVNVTPSFIRQAVSEKSTKFQLSADGRKIRWRGGTDGTKFSSDSSEDKSQQSPMTEDTEDGSDKNGRRKKRKTQQASSEIGRFGPSRSPSDTFHYKPMFVHRNSSSIETSLEESMSQGSEDAVDESNMGNSKWDFSGSGTTQQRRKRRYDGAIVYYTGAPFCTDLSGDPGDMSPTAQMTAGREVEGSGSGDEVEHVLQRTLSGSSLPIRPLSDDRARVAEVLDFDPGNPPELVADDGSSPNDEDFVFPWCEDPAKVRIQPIAKEVMEPSGLGGVLPDDHFVMLVTTRRVVRPILQRQLSRSTTSEDTAEFIAERLAAIRTSSPLPPRSHRLTVAPLQVEYVSGQFRRLNPAPLPPPAIFYPPFSTDSSWDDGDDLASDDEEVEEVEEDSYSEGQISRRANPHFSDNNTYMRKDDLAFDTETDVRMDSDDNRLSDSGHNMRAMMPRAEAVDGDDSPLAAVTGKEVDMLHTGSSVATAGGAESGYSSSMEDVSSS

binding [2]: binds
B2: FRQ S519A (protein, UniProt P19970 1-989)
chain: B1 chain with S519A

binding [2]: binds
B3: FRQ S513R (protein, UniProt P19970 1-989)
chain: B1 chain with S513R
